Reference: PubChem BioAssay (NCATS)
Inconclusive means that the source gave no clear call. Such entries were picked first, then a sample of the others. A potency beside an inconclusive call is a rough fit, not a confirmed value. Calls of active or inactive are those of the source. Calls come from the whole dose curve; as a rule, active = well fitted cell-killing curve with a large enough effect; inconclusive = small, poorly fitted or top-dose-only effect; inactive = no such curve, though single readings can be large or run the other way.

Assay: qHTS of pediatric cancer cell lines to identify multiple opportunities for drug repurposing: Primary screen for Rh41 cells (AID 1347108); note: nearly all actives have a fitted effect of over 70% in size
Conditions: Rh41 rhabdomyosarcoma viability, CellTiter-Glo luminescence, 48 h; series mostly up to 46 µM
Summary of the method: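 Viability was measured as metabolically active cells after 48 hours of treatment, read by CellTiter-Glo luminescence. Compounds were tested at multiple final concentrations, giving concentration-response curves.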
Potency is the fitted concentration of half-maximal effect.

Row | SMILES | Potency
1 | CC(C(O)c1ccc(O)cc1)N1CCC(Cc2ccccc2)CC1 (stereo unspecified) | inactive
2 | Cn1cc(C=CC(=O)c2cccc(F)c2)cc1C=CC(=O)NO | inconclusive: 11.8 µM [cytotoxic, partial curve]
3 | O=C(O)CCNc1cc(N2CCc3ccccc3CC2)nc(-c2ccccn2)n1 | inconclusive: 3.72 µM [cytotoxic, partial curve]
4 | CC/C(=C(\c1ccccc1)c1ccc(OCCN(C)C)cc1)c1ccccc1 | inactive
5 | CN1[C@@H]2CC(OC(=O)[C@H](CO)c3ccccc3)C[C@H]1[C@@H]1O[C@@H]12 (stereo partly specified) | inconclusive: 13.3 µM [cytotoxic, partial curve, poor fit]
6 | CC(C)(C)C(=O)OCOC(=O)[C@@H]1N2C(=O)[C@@H](NC(=O)[C@H](N)c3ccccc3)[C@H]2SC1(C)C | inactive
7 | O=S(=O)(O)c1ccc2cc(N=Nc3cc(S(=O)(=O)O)c4cccnc4c3O)ccc2c1 | inconclusive: 5.9 µM [cytotoxic, partial curve]
8 | OC[C@H]1O[C@@H](O[C@H]2[C@@H](O)[C@@](O)(CO)O[C@@H]2CO)[C@H](O)[C@@H](O)[C@@H]1O | inactive
9 | O=C1[C@H]2CCCC[C@H]2C(=O)N1CCCCN1CCN(c2nsc3ccccc23)CC1 | inconclusive: 1.19 µM [cytotoxic, partial curve]
10 | Nc1cccc2c1C(=O)N(C1CCC(=O)NC1=O)C2=O (stereo unspecified) | inconclusive: 2.09 µM [cytotoxic, partial curve, poor fit]
11 | Oc1c(Cl)cc(Cl)c(Cl)c1Cc1c(O)c(Cl)cc(Cl)c1Cl | inconclusive: 11.9 µM [cytotoxic, partial curve]

Gathered by group: the entries above with four or more nitrogen atoms (two)
Row | SMILES | Potency
3 | O=C(O)CCNc1cc(N2CCc3ccccc3CC2)nc(-c2ccccn2)n1 | inconclusive: 3.72 µM [cytotoxic, partial curve]
9 | O=C1[C@H]2CCCC[C@H]2C(=O)N1CCCCN1CCN(c2nsc3ccccc23)CC1 | inconclusive: 1.19 µM [cytotoxic, partial curve]
